{
  "source": "patent US4760052A",
  "about": "“1,6-dicarba-vasopressin compounds” (Smithkline Beckman Corporation, priority 1987, dated 1988)",
  "molecular_target": "vasopressin stimulated adenylate cyclase",
  "assay": "vasopressin stimulated adenylate cyclase activity, kidney medullary membrane",
  "type": "biochemical",
  "settings": "Swine; antagonism of vasopressin stimulated adenylate cyclase",
  "method": "In the test procedure for assay of adenylate cyclase activity, the amount of ^32 P/cAMP formed in the absence of medullary membrane is determined (blank). The blank value is subtracted from all experimental data. The compound is tested for its effect on basal adenylate cyclase activity and/or on vasopressin stimulated activity. Each determination is carried out in triplicate. The Ka value is derived from a Lineweaver-Burkeplot. Rel. Vmax =(Vmax drug/Vmax vasopressin) x 100. Ki =I/[Ka'/Ka)-1] where I is the concentration of the antagonist and Ka' and Ka are the concentrations of vasopressin required to give half maximal activity of adenylate cyclase in the presence and absence of antagonist, respectively.",
  "note": "Not every detail of the peptide structures is certain; ends, links or a residue may be inferred. *1 amine or outer side, *2 acyl side, *3 side chain or, on linkers, in order; H or OH if unused. Where a SMILES comes first, the peptide text is derived from it. Bridges are numbered along the chain shown (N, C = ends). [ ]: non-standard residue; d: D form. X1 = O=C(CC1(S[*:2])CCCCC1)[*:1]",
  "data": [
    {"smiles": "CCOc1ccc(C[C@H]2NC(=O)CC3(CCCCC3)SSC[C@@H](C(=O)N3CCC[C@H]3C(=O)N[C@@H](CCCNC(=N)N)C(N)=O)NC(=O)[C@H](CC(N)=O)NC(=O)[C@H](C(C)C)NC(=O)[C@H](Cc3ccccc3)NC2=O)cc1", "note": "[A, [1(mercapto-β,cyclopentamethylenepropionic acid)2-(O--ethylD-tyrosine)-4-valine-8-arginine-9-desglycine]vasopressin, reference compound] ([dY](Et)FVNCPR-NH2; linker N-5 via X1)", "values": [
      {"measurement": "Ki", "value": 4.5, "unit": "nM"}
    ]}
  ]
}
